According to the supplement of paper PMC11006884:
Most of the targets with a hit are listed elsewhere, so they are rarer here than in the full data. Single values of this set are uncertain. The entries are a selection whose mix differs from that of the whole data set.

Sequences of proteins named here, by UniProt entry; tags and fusion partners are left off. A change or cut given only in a name is not applied to a line headed by its entry.
UniProt O00571: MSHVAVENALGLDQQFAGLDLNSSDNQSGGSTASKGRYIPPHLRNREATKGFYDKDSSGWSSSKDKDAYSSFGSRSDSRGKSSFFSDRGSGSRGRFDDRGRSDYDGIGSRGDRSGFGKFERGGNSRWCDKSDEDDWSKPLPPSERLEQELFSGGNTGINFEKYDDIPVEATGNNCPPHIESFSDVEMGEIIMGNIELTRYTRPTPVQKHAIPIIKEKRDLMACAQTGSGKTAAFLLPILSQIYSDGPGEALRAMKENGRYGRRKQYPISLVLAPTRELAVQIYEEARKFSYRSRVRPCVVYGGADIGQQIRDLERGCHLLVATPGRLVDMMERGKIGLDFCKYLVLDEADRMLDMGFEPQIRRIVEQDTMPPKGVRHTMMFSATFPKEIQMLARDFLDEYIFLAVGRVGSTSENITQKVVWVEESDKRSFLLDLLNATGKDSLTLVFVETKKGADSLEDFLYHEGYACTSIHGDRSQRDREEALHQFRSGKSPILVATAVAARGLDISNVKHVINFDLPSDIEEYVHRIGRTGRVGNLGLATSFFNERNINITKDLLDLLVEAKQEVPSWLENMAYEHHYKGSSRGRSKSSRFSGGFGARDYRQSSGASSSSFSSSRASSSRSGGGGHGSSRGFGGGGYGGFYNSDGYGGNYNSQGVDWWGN
UniProt O15042: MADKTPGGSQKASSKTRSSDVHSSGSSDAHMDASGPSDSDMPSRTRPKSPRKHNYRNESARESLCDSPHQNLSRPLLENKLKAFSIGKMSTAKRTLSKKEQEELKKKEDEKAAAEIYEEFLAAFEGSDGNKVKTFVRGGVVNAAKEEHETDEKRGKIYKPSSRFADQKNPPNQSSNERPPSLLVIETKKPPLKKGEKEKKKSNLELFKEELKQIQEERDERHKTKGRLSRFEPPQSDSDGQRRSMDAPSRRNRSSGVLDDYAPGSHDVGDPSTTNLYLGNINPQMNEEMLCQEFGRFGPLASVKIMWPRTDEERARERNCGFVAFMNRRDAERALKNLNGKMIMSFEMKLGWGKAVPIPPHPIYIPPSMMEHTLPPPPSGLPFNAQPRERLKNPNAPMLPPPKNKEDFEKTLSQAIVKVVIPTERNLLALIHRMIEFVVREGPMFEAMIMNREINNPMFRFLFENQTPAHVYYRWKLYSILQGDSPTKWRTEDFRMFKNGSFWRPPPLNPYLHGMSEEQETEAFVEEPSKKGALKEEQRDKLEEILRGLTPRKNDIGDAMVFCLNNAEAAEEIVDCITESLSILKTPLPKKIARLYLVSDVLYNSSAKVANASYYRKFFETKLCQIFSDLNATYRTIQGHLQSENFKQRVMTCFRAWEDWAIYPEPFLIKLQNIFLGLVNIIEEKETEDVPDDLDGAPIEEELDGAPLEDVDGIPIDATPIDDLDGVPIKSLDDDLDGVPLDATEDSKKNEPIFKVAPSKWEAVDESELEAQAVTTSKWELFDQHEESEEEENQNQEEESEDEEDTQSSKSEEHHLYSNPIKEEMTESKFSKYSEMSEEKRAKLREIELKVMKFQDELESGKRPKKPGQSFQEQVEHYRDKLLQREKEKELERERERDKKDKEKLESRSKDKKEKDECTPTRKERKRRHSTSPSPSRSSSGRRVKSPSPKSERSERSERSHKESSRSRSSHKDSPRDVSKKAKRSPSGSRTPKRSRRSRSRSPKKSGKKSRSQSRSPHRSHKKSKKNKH
UniProt O14617: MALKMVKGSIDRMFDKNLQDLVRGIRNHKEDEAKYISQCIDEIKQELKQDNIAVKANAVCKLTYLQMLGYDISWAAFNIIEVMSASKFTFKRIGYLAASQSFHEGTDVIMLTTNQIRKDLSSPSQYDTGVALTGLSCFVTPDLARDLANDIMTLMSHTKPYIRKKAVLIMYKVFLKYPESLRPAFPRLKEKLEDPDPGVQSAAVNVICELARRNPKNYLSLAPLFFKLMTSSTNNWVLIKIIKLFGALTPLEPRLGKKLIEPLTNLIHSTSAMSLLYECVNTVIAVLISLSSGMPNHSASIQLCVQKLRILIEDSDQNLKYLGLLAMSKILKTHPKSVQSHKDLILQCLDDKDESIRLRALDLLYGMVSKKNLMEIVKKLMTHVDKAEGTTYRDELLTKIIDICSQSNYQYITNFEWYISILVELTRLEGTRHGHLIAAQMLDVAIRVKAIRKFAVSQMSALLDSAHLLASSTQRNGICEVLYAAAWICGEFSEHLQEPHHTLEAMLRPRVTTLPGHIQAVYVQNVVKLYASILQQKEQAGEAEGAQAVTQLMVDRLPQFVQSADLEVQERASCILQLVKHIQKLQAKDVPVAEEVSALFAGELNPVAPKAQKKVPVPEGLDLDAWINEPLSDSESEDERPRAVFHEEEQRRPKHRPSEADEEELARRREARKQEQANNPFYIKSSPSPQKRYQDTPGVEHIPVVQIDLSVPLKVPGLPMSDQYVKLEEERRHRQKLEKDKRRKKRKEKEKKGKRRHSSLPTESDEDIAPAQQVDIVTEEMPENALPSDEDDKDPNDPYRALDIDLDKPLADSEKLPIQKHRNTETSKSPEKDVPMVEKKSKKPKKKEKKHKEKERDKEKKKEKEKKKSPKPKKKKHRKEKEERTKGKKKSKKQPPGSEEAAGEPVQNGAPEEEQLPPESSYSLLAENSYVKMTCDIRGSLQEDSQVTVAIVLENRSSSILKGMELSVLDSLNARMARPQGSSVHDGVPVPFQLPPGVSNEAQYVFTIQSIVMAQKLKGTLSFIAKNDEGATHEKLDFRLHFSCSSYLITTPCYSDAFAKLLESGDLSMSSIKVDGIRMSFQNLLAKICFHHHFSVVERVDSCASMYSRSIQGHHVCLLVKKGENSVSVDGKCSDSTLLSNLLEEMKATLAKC
UniProt O00161: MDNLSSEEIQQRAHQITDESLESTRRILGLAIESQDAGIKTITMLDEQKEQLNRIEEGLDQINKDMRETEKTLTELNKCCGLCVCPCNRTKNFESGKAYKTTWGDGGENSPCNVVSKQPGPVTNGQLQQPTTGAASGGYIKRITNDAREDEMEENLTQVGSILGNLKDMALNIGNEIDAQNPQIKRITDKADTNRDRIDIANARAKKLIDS
UniProt O43175: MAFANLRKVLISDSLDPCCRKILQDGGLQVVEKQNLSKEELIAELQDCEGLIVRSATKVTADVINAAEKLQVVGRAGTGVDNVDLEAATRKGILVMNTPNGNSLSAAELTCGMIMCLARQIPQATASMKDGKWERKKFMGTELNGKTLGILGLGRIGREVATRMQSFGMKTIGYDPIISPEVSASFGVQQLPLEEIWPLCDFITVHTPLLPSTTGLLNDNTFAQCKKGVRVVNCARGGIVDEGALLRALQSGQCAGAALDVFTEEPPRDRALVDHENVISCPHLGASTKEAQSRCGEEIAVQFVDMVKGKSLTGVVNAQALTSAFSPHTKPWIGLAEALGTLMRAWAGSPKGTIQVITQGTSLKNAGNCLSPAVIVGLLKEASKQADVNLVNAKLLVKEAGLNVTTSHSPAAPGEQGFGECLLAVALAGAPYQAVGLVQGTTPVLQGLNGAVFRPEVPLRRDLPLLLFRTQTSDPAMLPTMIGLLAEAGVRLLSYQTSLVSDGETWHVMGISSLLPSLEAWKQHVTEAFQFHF
UniProt O15347: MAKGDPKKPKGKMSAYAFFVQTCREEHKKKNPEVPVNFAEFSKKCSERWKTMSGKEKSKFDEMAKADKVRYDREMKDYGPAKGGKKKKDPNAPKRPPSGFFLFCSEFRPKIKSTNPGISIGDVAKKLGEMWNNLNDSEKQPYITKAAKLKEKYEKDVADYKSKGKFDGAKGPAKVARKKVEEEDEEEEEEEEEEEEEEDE
UniProt O15084: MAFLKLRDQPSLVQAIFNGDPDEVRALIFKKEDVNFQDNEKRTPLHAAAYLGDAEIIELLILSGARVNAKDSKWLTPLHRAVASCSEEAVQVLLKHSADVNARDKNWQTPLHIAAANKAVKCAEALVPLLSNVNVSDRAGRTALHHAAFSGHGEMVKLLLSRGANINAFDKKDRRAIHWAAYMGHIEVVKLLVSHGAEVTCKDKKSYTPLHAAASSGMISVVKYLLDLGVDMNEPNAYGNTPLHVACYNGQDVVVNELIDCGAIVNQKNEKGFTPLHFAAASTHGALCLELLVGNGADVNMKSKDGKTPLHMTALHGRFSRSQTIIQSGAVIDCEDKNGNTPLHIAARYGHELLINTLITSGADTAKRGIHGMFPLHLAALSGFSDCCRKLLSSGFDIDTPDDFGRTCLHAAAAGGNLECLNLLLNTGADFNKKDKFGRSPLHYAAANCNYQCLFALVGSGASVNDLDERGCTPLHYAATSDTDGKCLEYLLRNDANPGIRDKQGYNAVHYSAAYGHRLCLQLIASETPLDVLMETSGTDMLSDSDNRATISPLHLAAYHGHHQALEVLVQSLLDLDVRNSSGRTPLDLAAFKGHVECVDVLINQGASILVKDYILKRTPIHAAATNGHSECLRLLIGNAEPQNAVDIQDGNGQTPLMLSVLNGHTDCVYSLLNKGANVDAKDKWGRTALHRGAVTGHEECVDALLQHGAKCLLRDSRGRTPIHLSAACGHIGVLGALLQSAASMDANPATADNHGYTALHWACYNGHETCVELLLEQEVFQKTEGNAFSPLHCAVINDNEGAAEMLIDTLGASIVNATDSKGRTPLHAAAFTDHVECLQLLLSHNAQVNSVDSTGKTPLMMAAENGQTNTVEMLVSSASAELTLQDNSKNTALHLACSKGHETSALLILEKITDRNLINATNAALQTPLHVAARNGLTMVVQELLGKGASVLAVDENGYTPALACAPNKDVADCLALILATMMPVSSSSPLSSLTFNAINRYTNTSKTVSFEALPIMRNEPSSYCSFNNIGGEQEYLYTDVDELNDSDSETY
UniProt O14776: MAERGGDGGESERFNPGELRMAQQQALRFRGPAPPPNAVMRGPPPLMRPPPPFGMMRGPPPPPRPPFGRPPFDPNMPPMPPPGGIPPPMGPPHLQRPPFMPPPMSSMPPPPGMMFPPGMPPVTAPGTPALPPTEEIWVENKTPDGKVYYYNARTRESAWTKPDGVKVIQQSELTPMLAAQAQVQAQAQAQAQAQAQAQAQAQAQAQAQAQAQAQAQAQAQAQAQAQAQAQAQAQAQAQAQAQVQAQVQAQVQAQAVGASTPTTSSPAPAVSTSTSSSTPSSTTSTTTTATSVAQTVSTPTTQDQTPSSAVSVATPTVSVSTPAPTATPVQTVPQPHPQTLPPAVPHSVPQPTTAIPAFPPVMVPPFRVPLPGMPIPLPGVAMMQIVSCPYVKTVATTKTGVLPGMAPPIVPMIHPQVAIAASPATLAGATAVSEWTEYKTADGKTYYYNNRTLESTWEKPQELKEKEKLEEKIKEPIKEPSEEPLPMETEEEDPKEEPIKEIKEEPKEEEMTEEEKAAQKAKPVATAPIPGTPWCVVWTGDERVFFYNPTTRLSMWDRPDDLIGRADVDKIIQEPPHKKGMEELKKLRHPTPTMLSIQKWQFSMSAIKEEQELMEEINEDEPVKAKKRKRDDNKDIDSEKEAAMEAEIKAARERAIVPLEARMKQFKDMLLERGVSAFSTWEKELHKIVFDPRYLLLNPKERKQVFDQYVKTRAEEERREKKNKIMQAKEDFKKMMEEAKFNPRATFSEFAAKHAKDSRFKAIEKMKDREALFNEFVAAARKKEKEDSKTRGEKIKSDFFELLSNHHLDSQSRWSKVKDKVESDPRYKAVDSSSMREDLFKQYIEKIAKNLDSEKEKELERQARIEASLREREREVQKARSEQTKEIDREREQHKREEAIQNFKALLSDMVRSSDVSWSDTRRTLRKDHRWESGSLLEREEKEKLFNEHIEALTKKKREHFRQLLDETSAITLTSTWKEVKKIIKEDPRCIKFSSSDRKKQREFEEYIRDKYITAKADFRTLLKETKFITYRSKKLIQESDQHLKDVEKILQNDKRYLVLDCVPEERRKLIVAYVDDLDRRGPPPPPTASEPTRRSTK
UniProt O00567: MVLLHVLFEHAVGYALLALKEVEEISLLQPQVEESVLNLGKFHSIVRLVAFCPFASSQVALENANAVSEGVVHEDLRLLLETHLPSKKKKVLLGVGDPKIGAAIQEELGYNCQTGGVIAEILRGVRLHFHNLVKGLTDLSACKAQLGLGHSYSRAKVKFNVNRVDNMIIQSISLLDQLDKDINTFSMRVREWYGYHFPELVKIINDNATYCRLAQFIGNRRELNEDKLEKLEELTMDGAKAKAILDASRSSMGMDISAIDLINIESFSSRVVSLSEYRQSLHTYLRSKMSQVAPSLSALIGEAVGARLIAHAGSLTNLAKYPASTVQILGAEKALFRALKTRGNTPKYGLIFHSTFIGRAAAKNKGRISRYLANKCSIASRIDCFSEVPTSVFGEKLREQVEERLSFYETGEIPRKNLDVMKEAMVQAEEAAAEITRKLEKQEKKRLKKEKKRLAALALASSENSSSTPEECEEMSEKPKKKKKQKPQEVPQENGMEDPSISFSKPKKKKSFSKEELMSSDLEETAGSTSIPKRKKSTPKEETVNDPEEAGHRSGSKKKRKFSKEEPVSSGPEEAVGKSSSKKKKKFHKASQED

The targets below were run with COC(=O)/C=C/c1ccccc1 [methyl cinnamate] (assay: log2 ratio of iodoacetamide-alkyne labeling of the cysteine site, DMSO over compound (competition); higher = stronger covalent engagement of the cysteine by the compound, active = 1 or more). Conditions: 500 µM; treatment time 1 h; system: HEK293T cell lysate.
Summary of the method: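 Electrophile (500 µM) or vehicle was added to HEK293T lysate (2 mg/mL) for 1 h at ambient temperature before iodoacetamide alkyne labelling (1 h) and click coupling to sCIP-TMT reagents. After pooling, overnight trypsin digestion at 37 °C, streptavidin enrichment and acid elution, peptides were measured by Orbitrap Eclipse LC-MS/MS with FAIMS and quantified in FragPipe. Each cysteine's log2 competition ratio compares mean control-channel with mean compound-channel reporter intensity, control over compound. Data came from duplicate channels across three replicates, excluding cysteines quantified in only one replicate.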

log2 ratio of iodoacetamide-alkyne labeling, inactive:
RNMT C95 (UniProt O43148) 0.518
TNRC18 C2204 (UniProt O15417) 0.207
DHX15 C774 (UniProt O43143) 0.137
PDLIM1 C45 (UniProt O00151) -0.0306
UniProt O00213_C672 0.205
DDX3X C341 (UniProt O00571) 0.2
TNRC18 C2288 (UniProt O15417) 0.138
PFAS C871 (UniProt O15067) -0.22
POLRMT C591 (UniProt O00411) -0.29
UniProt O15042_C291 0.19
AP3D1 C348 (UniProt O14617) 0.215
SNAP23 C112 (UniProt O00161) 0.446
PHGDH C19 (UniProt O43175) -0.118
PES1 C272 (UniProt O00541) 0.277
DNM1L C446 (UniProt O00429) 0.119
PSMD9 C59 (UniProt O00233) 0.152
ARHGEF11 C1166 (UniProt O15085) 0.189
PHGDH C295 (UniProt O43175) -0.0321
EIF3D C437 (UniProt O15371) 0.411
HMGB3 C23 (UniProt O15347) -0.0532
UniProt O43159_C317 0.0311
UniProt O15063_C512 0.339
ARPC3 C162 (UniProt O15145) 0.0386
ANKRD28 C701 (UniProt O15084) 0.18
PHGDH C48 (UniProt O43175) 0.115
WASL C431 (UniProt O00401) 0.627
XPO1 C164 (UniProt O14980) -0.04
UniProt O14979_C303 0.0198
TRIM24 C629 (UniProt O15164) 0.343
TCERG1 C1062 (UniProt O14776) 0.0362
GNPAT C650 (UniProt O15228) 0.421
IRS4 C658 (UniProt O14654) 0.321
UniProt O00567_C384 -0.277
PHGDH C18 (UniProt O43175) 0.145
ZZEF1 C2037 (UniProt O43149) 0.12
IGF2BP3 C194 (UniProt O00425) 0.538
UniProt O14757_C168 0.331

Reprinted at random: 2 entries already listed, in no set order.
log2 ratio of iodoacetamide-alkyne labeling, inactive:
HMGB3 C23 (UniProt O15347) -0.0532
PHGDH C18 (UniProt O43175) 0.145
